Measured data: PubChem BioAssay AID602196 (INSERM, 2012)
Purpose: 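Modifiers of cisplatin sensitivity in A549 cells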. Cell system: human A549 lung cancer cells. Knock-down reagent: siRNA pair against human genes. Timing: 48 h transfection before cisplatin; time from cisplatin to read-out not stated. Conditions: cisplatin at a dose killing half of control-siRNA cells; exact dose and duration not given. Read-out: 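Cisplatin cell death as a shift from the 50% death seen with control siRNA; siRNAs toxic or growth-blocking alone scored 0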. Reading the numbers: two-siRNA summed score (-2 to +2): higher = both siRNAs protect from cisplatin killing; -2 means both sensitise. Call rule: 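Each siRNA scores 0 if harmful alone by LDH or WST-1, otherwise +1 if it reduces and -1 if it increases cisplatin killing; a gene is active when both siRNAs agree (sum +2 or -2)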. Meaning of the calls: active = both siRNAs shift cisplatin killing the same way; inactive = no consistent shift, or siRNA harmful alone.
In all, the deposit lists about 23,000 reagents; shown is a part drawn at random. Of all reagents, 455 (2%) were called active. 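Active includes both protection and sensitisation; some change values fall well beyond the stated -50 to +50 range.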 Unmarked entries are inactive. Further read-outs or replicates are left out here. Reagent sequences are not shown. Not stated in the record: the amount of reagent.

Depletion of LOC390992 resulted in: two-siRNA summed score (-2 to +2) = 1.
With knock-down of LOC440129, the screen gave two-siRNA summed score (-2 to +2) = 1.
Silencing of GATA1 came out at: two-siRNA summed score (-2 to +2) = 1.
With knock-down of LOC440336 the results were two-siRNA summed score (-2 to +2) = 2 (active).
Against MRGPRX4, the entry reads two-siRNA summed score (-2 to +2) = 0.
POLR2D gave two-siRNA summed score (-2 to +2) = -1.
For TCN1 the deposit lists two-siRNA summed score (-2 to +2) = 0.
Silencing of MRPL11 gave: two-siRNA summed score (-2 to +2) = 0.
With knock-down of NTRK1, the screen gave two-siRNA summed score (-2 to +2) = 1.
Against MS4A1, the entry reads two-siRNA summed score (-2 to +2) = 0.
AIM2 gave two-siRNA summed score (-2 to +2) = 0.
SDC1 gave two-siRNA summed score (-2 to +2) = 0.

As entered above.
Result of POLR2D under “two-siRNA summed score (-2 to +2)”: -1
LOC440336, two-siRNA summed score (-2 to +2) = 2 (active)
